Measured values reported in article PMC4609988.

Molecular target: T1, soluble extracellular domain of Tie1-Fc (UniProt P35590)
T1 sequence: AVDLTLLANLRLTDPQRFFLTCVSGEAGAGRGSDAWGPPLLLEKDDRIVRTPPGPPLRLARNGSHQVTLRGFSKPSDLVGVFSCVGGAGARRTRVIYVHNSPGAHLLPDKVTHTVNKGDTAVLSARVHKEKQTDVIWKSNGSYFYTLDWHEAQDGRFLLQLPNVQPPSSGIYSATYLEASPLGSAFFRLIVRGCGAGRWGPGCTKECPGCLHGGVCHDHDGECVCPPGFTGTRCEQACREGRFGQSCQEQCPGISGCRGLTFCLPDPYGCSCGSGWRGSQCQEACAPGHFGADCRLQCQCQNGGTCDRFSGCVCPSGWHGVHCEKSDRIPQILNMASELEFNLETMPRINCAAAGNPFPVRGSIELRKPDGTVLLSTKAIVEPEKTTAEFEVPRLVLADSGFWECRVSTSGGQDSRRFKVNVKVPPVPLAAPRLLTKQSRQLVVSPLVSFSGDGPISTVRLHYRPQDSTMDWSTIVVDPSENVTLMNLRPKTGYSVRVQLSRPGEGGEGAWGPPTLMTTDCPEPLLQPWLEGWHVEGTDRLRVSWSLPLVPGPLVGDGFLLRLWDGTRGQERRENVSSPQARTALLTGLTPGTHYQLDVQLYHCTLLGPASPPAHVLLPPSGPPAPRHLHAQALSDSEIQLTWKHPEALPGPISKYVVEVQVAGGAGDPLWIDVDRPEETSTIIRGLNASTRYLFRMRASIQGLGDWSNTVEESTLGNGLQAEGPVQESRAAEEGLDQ
Experiment: condition: 100 ng variant with 500 ng sTie1-Fc in 500 μl; pull-down; in vitro binding assay: 100 ng of each recombinant protein mixed with 500 ng of sTie1-Fc or sTie2-Fc in 500 μl TBSN (50 mM Tris, 100 mM NaCl, 1.0% Nonidet P-40, pH 7.5), 4 °C, 2 hr; protein-A agarose or streptactin agarose beads 1 hr; immunoblot; both purified

In the case of CMP-Ang1-1 (human) (ligand), the binding is reported as “no binding”.

These are yes or no findings as the source states them, for the method shown. Where a sequence is shown, tags or fusion partners need not be part of it.
